The list shows a part of the results.

Protein sequences, listed by entry. Tags and fused reporters are not part of them. Lines headed by an entry give the natural chain unless they say otherwise; changes in a name come on top.
UniProt Q6ZN55: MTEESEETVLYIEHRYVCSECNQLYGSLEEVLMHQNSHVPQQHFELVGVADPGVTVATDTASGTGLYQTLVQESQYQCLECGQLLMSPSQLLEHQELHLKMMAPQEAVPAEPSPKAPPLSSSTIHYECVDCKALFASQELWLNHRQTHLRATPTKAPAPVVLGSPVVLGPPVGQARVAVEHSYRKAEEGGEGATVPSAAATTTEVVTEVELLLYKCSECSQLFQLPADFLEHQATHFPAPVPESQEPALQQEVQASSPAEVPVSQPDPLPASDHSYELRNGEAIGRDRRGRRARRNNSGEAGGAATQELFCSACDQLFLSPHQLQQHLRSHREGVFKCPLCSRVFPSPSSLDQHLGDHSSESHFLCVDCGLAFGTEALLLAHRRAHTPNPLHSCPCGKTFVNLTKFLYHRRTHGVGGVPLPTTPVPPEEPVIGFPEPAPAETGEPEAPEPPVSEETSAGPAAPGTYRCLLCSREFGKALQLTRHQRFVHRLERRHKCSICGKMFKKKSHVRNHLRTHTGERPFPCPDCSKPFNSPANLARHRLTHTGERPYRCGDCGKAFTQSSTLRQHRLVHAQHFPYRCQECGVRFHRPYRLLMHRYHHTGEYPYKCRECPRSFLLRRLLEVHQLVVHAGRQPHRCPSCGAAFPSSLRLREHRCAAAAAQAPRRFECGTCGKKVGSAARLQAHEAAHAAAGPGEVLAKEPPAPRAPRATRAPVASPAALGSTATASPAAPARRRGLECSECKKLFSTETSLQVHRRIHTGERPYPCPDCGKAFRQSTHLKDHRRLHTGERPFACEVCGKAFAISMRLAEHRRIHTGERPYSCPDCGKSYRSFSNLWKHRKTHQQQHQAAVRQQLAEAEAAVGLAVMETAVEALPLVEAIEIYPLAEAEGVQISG
UniProt Q96K58: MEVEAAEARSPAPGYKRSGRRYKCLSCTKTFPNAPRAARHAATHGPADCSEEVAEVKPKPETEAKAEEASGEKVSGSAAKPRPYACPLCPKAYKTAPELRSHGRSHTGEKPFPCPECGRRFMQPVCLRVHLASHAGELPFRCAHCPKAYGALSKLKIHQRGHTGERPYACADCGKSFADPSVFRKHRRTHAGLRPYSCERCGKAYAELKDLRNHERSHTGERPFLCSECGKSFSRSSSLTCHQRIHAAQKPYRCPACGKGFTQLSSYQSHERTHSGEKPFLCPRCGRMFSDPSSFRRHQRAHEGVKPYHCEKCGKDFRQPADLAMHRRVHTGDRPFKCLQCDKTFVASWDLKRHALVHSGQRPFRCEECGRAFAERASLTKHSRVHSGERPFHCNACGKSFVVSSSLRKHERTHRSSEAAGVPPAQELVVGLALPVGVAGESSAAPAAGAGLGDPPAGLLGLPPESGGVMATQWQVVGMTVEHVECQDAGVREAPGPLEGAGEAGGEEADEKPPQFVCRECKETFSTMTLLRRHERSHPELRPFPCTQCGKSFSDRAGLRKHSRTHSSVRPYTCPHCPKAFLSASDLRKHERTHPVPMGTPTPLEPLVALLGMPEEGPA
UniProt Q14966: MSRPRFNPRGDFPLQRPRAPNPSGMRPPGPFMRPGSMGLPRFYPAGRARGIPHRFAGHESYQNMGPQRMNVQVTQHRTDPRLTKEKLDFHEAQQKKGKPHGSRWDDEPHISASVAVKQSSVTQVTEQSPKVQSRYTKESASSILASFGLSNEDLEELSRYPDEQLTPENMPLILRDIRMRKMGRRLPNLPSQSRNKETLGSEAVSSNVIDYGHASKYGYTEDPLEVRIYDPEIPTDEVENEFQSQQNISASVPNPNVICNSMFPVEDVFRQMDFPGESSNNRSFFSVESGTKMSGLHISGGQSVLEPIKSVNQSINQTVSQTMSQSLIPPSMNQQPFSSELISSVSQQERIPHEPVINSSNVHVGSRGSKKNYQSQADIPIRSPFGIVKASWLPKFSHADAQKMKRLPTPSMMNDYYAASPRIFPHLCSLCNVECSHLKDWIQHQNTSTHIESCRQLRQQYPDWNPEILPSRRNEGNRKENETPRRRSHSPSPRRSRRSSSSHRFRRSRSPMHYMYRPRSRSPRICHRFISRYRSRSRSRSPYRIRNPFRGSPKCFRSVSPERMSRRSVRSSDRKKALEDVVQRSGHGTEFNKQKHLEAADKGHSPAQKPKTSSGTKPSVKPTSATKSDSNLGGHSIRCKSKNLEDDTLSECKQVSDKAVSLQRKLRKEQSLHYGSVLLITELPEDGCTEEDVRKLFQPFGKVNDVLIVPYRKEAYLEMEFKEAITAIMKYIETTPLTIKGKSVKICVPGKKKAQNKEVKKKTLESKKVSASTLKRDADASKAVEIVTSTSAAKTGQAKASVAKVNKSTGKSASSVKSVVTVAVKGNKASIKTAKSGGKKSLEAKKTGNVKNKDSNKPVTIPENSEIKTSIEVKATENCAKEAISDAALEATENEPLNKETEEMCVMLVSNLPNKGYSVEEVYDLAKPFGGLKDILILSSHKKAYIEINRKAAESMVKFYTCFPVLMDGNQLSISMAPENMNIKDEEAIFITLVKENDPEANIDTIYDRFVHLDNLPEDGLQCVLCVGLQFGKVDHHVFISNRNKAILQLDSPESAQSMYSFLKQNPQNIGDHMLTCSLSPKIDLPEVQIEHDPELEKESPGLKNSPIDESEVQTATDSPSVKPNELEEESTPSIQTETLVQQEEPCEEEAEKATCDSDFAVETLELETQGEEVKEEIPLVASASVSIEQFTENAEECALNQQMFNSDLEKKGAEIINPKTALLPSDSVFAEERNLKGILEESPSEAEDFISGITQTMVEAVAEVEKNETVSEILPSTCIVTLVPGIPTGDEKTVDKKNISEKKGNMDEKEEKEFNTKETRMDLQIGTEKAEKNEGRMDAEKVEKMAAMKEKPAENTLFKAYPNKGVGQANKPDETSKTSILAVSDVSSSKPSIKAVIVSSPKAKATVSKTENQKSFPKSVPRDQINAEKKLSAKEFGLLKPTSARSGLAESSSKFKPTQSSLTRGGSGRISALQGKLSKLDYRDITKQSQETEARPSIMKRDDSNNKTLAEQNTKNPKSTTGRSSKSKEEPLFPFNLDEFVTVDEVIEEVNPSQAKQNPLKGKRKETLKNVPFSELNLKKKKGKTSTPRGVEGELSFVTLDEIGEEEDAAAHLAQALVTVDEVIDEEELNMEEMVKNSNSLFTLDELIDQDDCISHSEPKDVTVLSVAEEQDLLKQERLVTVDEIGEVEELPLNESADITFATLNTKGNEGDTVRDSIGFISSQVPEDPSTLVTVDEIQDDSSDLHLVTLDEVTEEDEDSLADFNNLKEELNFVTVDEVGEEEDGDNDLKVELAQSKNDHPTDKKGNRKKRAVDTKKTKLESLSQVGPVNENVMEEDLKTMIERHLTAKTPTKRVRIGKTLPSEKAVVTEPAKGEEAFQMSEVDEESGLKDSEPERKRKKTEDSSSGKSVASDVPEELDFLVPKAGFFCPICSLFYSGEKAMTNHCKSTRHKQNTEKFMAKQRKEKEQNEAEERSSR
UniProt Q8WUU4: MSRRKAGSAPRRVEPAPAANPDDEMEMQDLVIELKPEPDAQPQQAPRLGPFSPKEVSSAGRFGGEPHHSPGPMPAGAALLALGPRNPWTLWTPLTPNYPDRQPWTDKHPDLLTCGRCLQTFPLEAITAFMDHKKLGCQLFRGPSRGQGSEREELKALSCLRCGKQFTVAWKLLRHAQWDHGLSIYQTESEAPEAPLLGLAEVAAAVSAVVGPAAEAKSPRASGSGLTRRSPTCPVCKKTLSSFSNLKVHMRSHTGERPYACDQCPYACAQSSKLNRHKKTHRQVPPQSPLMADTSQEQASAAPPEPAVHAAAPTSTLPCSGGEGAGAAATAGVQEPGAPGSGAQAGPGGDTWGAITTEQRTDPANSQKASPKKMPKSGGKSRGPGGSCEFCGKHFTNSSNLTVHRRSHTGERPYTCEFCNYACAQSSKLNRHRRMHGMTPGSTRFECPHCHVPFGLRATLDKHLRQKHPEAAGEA
UniProt Q9Y3S2: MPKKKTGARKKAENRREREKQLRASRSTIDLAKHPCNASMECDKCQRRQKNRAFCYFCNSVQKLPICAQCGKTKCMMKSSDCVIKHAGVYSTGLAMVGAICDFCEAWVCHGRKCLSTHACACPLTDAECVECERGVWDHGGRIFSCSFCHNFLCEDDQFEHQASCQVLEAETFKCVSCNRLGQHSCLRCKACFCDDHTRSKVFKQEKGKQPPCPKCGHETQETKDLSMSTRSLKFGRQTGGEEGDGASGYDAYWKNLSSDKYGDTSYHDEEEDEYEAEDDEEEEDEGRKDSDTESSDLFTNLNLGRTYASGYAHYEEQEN
UniProt Q14586: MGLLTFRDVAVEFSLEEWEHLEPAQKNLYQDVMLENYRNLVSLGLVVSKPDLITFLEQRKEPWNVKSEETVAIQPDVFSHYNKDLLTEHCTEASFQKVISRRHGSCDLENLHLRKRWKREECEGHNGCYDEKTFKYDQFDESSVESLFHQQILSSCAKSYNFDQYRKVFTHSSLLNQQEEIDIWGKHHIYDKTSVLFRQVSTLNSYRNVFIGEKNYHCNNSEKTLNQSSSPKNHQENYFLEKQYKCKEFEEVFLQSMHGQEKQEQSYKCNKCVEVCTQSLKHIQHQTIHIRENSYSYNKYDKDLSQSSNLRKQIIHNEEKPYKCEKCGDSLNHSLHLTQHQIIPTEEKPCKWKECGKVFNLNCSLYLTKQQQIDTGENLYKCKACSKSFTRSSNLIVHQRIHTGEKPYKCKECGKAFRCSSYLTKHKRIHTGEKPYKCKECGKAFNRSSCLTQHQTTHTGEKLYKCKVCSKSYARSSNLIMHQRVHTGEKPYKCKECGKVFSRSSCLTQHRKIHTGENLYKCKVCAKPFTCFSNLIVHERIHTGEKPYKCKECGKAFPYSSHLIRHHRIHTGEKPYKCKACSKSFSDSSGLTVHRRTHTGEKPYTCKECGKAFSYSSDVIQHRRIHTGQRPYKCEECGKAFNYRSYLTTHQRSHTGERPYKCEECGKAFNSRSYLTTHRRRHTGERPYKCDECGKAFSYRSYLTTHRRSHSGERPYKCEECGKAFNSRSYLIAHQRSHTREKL
UniProt Q86UK7: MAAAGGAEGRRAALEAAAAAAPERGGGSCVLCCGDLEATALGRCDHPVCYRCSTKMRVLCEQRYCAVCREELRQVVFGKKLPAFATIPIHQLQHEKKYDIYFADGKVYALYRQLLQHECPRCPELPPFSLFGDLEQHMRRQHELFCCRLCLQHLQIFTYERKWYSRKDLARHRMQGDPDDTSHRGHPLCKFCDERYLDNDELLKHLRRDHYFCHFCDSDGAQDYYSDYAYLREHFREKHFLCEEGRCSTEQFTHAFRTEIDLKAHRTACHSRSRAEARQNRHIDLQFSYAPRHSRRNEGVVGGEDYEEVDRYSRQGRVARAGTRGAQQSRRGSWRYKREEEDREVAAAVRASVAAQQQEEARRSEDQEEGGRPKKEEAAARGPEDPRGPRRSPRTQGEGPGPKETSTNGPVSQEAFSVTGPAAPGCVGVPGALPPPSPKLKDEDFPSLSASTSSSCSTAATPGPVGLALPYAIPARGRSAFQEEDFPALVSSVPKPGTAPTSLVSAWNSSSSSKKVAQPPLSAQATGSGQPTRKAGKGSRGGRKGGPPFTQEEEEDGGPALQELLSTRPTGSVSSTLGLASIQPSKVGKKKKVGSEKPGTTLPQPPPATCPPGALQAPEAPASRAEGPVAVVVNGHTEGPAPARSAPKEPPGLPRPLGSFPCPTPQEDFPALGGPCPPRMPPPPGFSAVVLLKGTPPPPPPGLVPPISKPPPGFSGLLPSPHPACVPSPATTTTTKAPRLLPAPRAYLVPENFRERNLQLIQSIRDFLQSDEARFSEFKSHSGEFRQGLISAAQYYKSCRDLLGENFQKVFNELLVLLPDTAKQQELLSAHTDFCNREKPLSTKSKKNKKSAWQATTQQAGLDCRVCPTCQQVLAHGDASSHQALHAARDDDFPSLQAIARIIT
UniProt P17029: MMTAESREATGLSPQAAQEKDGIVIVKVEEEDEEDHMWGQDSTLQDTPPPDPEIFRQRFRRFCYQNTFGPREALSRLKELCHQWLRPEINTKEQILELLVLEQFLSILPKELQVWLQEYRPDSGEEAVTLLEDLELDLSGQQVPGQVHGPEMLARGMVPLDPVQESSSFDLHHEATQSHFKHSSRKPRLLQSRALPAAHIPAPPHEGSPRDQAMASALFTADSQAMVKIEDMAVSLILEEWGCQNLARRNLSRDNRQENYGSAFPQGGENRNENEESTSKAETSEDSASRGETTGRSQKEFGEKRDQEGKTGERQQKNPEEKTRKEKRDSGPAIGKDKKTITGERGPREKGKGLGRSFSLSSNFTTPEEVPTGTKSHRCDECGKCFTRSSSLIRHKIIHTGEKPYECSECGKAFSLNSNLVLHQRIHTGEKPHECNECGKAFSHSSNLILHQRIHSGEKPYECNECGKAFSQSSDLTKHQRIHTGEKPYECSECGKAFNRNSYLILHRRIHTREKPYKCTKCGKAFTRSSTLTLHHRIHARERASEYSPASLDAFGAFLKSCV

Compound in the assay: CC1Cc2ccccc2N1C(=O)C1CCCN(C1)C(=O)CCl (mixture of isomers) [TRIM25 ligand 11 (diastereomer mixture)]
Nature of the assay: probe-labelled cysteine peptide fold change vs DMSO (competition) (log2 fold change); higher = less target engagement (more negative = stronger competition). The following applies: THP-1, incubation time: 4 h.
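Further: competitive chemoproteomic profiling in live THP-1 cells with an iodoacetamide desthiobiotin (IA-DTB) probe, comparing probe-labelled peptide intensities in compound-treated cells against DMSO-treated controls.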

With “ZNF574_Q6ZN55_394+396_AHTPNPLHSCPCGK (UniProt Q6ZN55)”, the “probe-labelled cysteine peptide fold change” value is -0.0171 (10 µM) and -0.0231 (50 µM).

For the target “ZNF668_Q96K58_198_THAGLRPYSCER (UniProt Q96K58)”, the “probe-labelled cysteine peptide fold change” value (10 µM) turned out to be 0.131 and the “probe-labelled cysteine peptide fold change” value (50 µM) was determined as 0.173.

For “ZNF638_Q14966_428_IFPHLCSLCNVECSHLK (UniProt Q14966)”, the “probe-labelled cysteine peptide fold change” value runs as follows: (10 µM) -0.0733; (50 µM) 0.239.

Consider “ZNF296_Q8WUU4_117_CLQTFPLEAITAFMDHK (UniProt Q8WUU4)”, for which the “probe-labelled cysteine peptide fold change” value runs as follows: (10 µM) -0.0315; (50 µM) -0.109.

Take “ZNF592_Q92610_353_SICSDSSSK (UniProt Q92610)”: the “probe-labelled cysteine peptide fold change” value is -0.0742 (10 µM) and -0.0643 (50 µM).

Turning to “ZNF330_Q9Y3S2_192+194_ACFCDDHTR (UniProt Q9Y3S2)”, the “probe-labelled cysteine peptide fold change” value (10 µM) amounted to 0.0999 and the “probe-labelled cysteine peptide fold change” value (50 µM) was -0.0251.

Turning to “ZMYND11_Q15326_73_DGLIVETLTVGCK (UniProt Q15326)”, the “probe-labelled cysteine peptide fold change” value by setting is: (10 µM) 0.000505; (50 µM) 0.0511.

Take “ZNF330_Q9Y3S2_132_CLSTHACACPLTDAECVECER (UniProt Q9Y3S2)”: the “probe-labelled cysteine peptide fold change” value reads like this: (10 µM) -0.0916; (50 µM) -0.106.

For “ZNF267_Q14586_218_NYHCNNSEK (UniProt Q14586)”, the “probe-labelled cysteine peptide fold change” value reads like this: (10 µM) -0.0919; (50 µM) -0.0633.

With “ZNF521_Q96K83_990_SLDTGNCR (UniProt Q96K83)”, the “probe-labelled cysteine peptide fold change” value reads like this: (10 µM) 0.0503; (50 µM) 0.113.

On to “ZNF131_P52739_235_EDGCPSDPTSK (UniProt P52739)”, for which the “probe-labelled cysteine peptide fold change” value was -0.0892 (10 µM) and -0.122 (50 µM).

Turning to “ZNF326_Q5BKZ1_360_VVMEFLHECMVNK (UniProt Q5BKZ1)”, the “probe-labelled cysteine peptide fold change” value (10 µM) was 0.0411 and the “probe-labelled cysteine peptide fold change” value (50 µM) was -0.027.

As for “ZNF598_Q86UK7_864_SAWQATTQQAGLDCR (UniProt Q86UK7)”, the “probe-labelled cysteine peptide fold change” value (10 µM) was -0.02 and the “probe-labelled cysteine peptide fold change” value (50 µM) is -0.0545.

In the case of “ZKSCAN1_P17029_63_FCYQNTFGPR (UniProt P17029)”, the “probe-labelled cysteine peptide fold change” value runs as follows: (10 µM) 0.113; (50 µM) -0.0953.

These data come from the supplement of paper PMC12067093, “Discovery and optimisation of a covalent ligand for TRIM25 and its application to targeted protein ubiquitination” (Chemical Science, 2025).
